Assay results reported in PMC8664570.
No constants are given. Whether binding was seen depends on the method and setting. A result given as binding can be weak or reduced; the word gives no strength. Where a sequence is shown, tags or fusion partners need not be part of it.

Molecular target: PAR-6::mCherry (C. elegans | not stated)
Assay: light-induced coclustering (CeLINC), fluorescence microscopy; in live C. elegans; mCherry-tagged bait trapped by CRY2(olig)::VHH(mCherry) in clusters; coclustering of the GFP-tagged prey scored; endogenously tagged proteins

binding: binds
B1: GFP::PKC-3 (protein, UniProt Q19266 1-597)
chain: MSSPTSLEEDGDIKLKTRFQGQVVVLYARPPLILDDFFALLKDACKQHKKQDITVKWIDEDGDPISIDSQMELDEAVRCLNSSQEAELNIHVFVGKPELPGLPCQGEDKTVYRRGARRWKKIYLYNGHRFQAKRLNRRIQCFICHDYIWGIGRQGFRCVDCRLCVHKKCHRHVRTHCGQALQGPNIIPMAPASGSLKGARSNTSSSTTRSGGGIDNGAFHEHEIESPGSTSHDASRAMNGNGSSKWAVSLNDFRLLTVIGRGSYAKVVQAEHVSTRQIYAIKIIKKEMFNEDEDIDWVQTEKSVFEAASNYPFLVGLHSCFQTESRLFFVIEFVPGGDLMFHMQQQRKLPEEHARFYSGEIILALHFLHSRGIIYRDLKLDNVLIDAEGHIKLTDYGMCKENIKDGDLTSTFCGTPNYIAPEILRGDEYGFSVDWWALGVLMFEMMAGRSPFDIVGMQNSEENTEDYLFQIILERQIRIPRSLSVRASGILKGFLNKDPTERLGCKLDINEGLRDMKEHQFFRGFIDWEALEQKAVAPPYHPAVESDRDLTHFDHQFTDELPQLSPDNPDVIARIDQSEFDGFEYVNPLQMSREDSV
